Reference: article doi:10.1101/2024.07.13.603409
These are yes or no findings as the source states them, for the method shown. In cells and extracts the contact can be indirect. Some entries that bind do so weakly or less than the wild type. For some of these results: Sequences can lack the tags named with a protein.

Protein sequences, listed by entry. Tags and fused reporters are not part of them.
UniProt Q14790: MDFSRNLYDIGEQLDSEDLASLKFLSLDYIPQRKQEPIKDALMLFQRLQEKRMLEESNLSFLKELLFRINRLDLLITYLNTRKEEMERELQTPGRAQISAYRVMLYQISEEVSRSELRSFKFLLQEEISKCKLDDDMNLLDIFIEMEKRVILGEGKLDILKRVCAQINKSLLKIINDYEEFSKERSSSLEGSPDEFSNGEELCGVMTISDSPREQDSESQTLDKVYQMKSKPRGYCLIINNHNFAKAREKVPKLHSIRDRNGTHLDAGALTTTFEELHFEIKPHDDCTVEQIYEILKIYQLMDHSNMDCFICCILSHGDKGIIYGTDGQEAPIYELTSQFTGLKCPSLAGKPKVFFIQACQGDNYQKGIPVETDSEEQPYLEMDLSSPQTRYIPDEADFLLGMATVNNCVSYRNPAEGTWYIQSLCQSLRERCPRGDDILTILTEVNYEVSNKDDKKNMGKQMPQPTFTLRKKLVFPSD
UniProt O00429: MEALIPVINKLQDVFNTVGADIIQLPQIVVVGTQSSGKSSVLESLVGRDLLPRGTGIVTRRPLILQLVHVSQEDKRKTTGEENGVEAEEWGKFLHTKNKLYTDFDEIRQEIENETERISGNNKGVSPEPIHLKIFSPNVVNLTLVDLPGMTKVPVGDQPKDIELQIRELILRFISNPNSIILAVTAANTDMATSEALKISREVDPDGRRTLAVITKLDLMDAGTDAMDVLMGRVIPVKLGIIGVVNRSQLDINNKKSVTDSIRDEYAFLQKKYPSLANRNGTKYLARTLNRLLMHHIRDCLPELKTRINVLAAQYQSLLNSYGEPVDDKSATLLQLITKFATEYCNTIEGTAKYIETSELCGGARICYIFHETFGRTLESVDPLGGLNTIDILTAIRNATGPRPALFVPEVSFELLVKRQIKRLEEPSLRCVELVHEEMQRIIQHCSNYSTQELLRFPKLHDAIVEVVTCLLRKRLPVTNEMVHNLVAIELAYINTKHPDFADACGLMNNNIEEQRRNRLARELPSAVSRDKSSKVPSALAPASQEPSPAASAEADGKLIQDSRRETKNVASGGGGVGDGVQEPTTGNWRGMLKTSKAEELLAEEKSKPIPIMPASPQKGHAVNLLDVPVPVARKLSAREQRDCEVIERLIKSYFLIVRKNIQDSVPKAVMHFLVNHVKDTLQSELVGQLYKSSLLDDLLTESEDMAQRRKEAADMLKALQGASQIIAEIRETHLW

Key:
Experiment in all cases: pull-down
caspase-7, strep-tagged = biological target: T1, caspase-7, strep-tagged (UniProt P55210)
T1 sequence: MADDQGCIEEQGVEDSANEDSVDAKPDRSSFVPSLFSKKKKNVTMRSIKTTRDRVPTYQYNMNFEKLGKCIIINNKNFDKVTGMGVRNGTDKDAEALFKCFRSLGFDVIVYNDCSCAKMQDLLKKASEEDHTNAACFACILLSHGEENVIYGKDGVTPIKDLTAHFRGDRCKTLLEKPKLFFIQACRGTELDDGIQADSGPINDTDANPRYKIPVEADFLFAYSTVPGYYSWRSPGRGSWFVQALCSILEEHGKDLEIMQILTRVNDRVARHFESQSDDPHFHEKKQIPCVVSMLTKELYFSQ

caspase-8, strep-tagged = caspase-8, strep-tagged (UniProt Q14790)
caspase-6, strep-tagged = biological target: T2, caspase-6, strep-tagged (UniProt P55212)
T2 sequence: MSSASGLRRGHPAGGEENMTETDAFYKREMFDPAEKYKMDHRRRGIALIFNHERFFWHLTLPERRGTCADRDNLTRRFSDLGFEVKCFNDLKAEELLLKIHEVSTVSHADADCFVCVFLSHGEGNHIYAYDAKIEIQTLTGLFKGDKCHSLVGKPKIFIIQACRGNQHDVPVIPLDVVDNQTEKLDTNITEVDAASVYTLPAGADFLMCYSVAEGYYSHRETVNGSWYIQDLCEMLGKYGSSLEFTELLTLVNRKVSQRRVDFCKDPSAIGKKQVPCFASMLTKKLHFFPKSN

[1] = biological target: T3, caspase-3, strep-tagged (human) (UniProt P42574)
T3 sequence: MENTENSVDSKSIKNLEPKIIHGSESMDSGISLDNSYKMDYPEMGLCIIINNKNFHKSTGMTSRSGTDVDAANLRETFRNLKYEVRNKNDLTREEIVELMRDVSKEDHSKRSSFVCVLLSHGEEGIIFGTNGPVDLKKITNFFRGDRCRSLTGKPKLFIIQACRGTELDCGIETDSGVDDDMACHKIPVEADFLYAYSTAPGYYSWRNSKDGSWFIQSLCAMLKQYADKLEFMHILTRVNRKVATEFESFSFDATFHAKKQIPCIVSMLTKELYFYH

Measured: binding

dynamin-related protein 1 (DRP1), V5-tagged (from UniProt O00429 1-736)
binds: all assays above
